From paper PMC3859071 come the findings set out here.

Series [1] deals with VEGF165 (human). The experiment in a line: binding assay. To be noted: EMSA: TBSE (0.05 mM EDTA, 10 mM Tris-HCl, 100 mM NaCl, pH 7; Vap7 folded with +100 mM KCl), 25 C, 30-60 min, 0.1 uM aptamer; commercial protein; folded or branched DNA. (Mobility shift assays separate free from complexed probe on a gel.)
A further series relates to alpha-thrombin (human). The experiment in a line: binding assay. As to conditions: EMSA: TBSE (0.05 mM EDTA, 10 mM Tris-HCl, 100 mM NaCl, pH 7; Vap7 folded with +100 mM KCl), 25 C, 30-60 min, 0.1 uM aptamer; commercial protein; folded or branched DNA.
The subject of series [2] is Alexa555-VEGF165 (human). The experiment in a line: aptamer microarray. As to conditions: less defined signal than with T12 spacer; 5'-amino; Microarray: TBSE, 25 C, 30 min, PBS washes; commercial protein; protein details: Alexa Fluor 555; folded or branched DNA.
In series [3] the test system is VEGF165 (human). The experiment in a line: EMSA supershift. To be noted: 5 uM VEGF165, no ternary complex evident (binary complex forms); 5'-amino on strand 1; EMSA: TBSE (0.05 mM EDTA, 10 mM Tris-HCl, 100 mM NaCl, pH 7; Vap7 folded with +100 mM KCl), 25 C, 30-60 min, 0.1 uM aptamer; commercial protein; label: 5'-FAM on strand 2.
Series [4] has as its system Alexa555-VEGF165 (human). The experiment in a line: sandwich aptamer microarray. To be noted: detected with VEa5-Cy5; 5'-amino; Microarray: TBSE, 25 C, 30 min, PBS washes; commercial protein; protein details: Alexa Fluor 555; single-stranded DNA.

For some of these results: A negative result means that nothing was seen under these conditions. For some of these results: At least one verdict rests on a figure or table, not on a statement of the authors. For some of these results: The exact form of at least one protein or probe is not confirmed. For some of these results: The comparison behind a weaker result is the experiment's own reference, which may not be listed here.

A word on the Kd: it is the equilibrium constant for the complex coming apart. Higher therefore signals lower affinity. On to “ATACCAGTCTATTCAATTGGGCCCGTCCGTATGGTGGGTGTGCTGGCCAGATAGTATGTGCAATCA [VEa5]”, for which, in the series with VEGF165 (human) [1], the Kd worked out at 130 nM.

Turning to GGTTGGTGTGGTTGG [TBA1], in the series with alpha-thrombin (human), the Kd was 26 nM.

“ATACCAGTCTATTCAATTGCACTCTGTGGGGGTGGACGGGCCGGGTAGA [Vap7]”: in the series on VEGF165 (human) [1], the Kd amounted to 20 nM.

Regarding “ATACCAGTCTATTCAATTGCACTCTGTGGGGGTGGACGGGCCGGGTAGA [Vap7-NH2]”, the binding result with Alexa555-VEGF165 (human) [2] is recorded as “binds more weakly”.

As to “ATACCAGTCTATTCAATTGCACTCTGTGGGGGTGGACGGGCCGGGTAGA / ATACCAGTCTATTCAATTGGGCCCGTCCGTATGGTGGGTGTGCTGGCCAGATAGTATGTGCAATCA [Vap7-NH2 + VEa5-FAM]”, the binding result in the series with VEGF165 (human) [3] is reported as “no binding”.

The sequence AGTCCGTGGTAGGGCAGGTTGGGGTGACT [TBA2] showed a Kd in the series with alpha-thrombin (human) of 0.5 nM.

Turning to “TCACGCTTATTTAAGAAGCTGTTTGGTGGAGG [Random DNA-NH2]”, in the series with Alexa555-VEGF165 (human) [4], the binding result is “no binding”.
